# Measurements reported in PubChem BioAssay AID743121 (NCATS, 2013).
# Aim: 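Genes whose silencing strengthens cell killing by camptothecin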 (primary screen)
# Cells: MDA-MB-231 cells, a human breast cancer line
# Reagent: single siRNA against human genes, 20 nM siRNA (0.8 pmol per well)
# Duration: 120 h (drug added 48 h after transfection, read 72 h later)
# Challenge: camptothecin 20 nM (about EC30) for 72 h; vehicle 0.1% DMSO in parallel plates
# Read-out: 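CellTiter-Glo ATP signal, scaled to control siRNA as percent viability; sensitisation given as log2 of untreated divided by camptothecin-treated viability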
# Scale: log2 vehicle/camptothecin viability: higher = stronger sensitisation to camptothecin
# Hit rule: 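Each gene scored by redundant siRNA activity (RSA) over its individual siRNA ratios; a gene is called active at p < 0.001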
# This is an unselected part of about 26,000 deposited reagents. Over the whole deposit, 167 (0.63%) are marked active. 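Calls are per gene from RSA p-values that are not deposited; an individual active-marked siRNA can sensitise only weakly.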 The numbers tell different reagents against one gene apart. Not all columns of the deposit are shown.
gene,reagent,log2 vehicle/camptothecin viability,call
UBE2V1 (ubiquitin conjugating enzyme E2 V1),1,-0.595,inactive
UBE2V1 (ubiquitin conjugating enzyme E2 V1),2,0.00369,inactive
UBE2V1 (ubiquitin conjugating enzyme E2 V1),3,0.224,inactive
DGKZ (diacylglycerol kinase zeta),1,-0.35,active
DGKZ (diacylglycerol kinase zeta),2,1.01,active
DGKZ (diacylglycerol kinase zeta),3,1.03,active
DGKZ (diacylglycerol kinase zeta),4,-0.0279,active
DUS2 (dihydrouridine synthase 2),1,-0.17,inactive
DUS2 (dihydrouridine synthase 2),2,0.175,inactive
DUS2 (dihydrouridine synthase 2),3,0.547,inactive
DUS2 (dihydrouridine synthase 2),4,-0.0695,inactive
DMRT1 (doublesex and mab-3 related transcription factor 1),1,0.247,inactive
DMRT1 (doublesex and mab-3 related transcription factor 1),2,-0.753,inactive
DMRT1 (doublesex and mab-3 related transcription factor 1),3,-0.0738,inactive
UROS (uroporphyrinogen III synthase),1,0.0356,inactive
UROS (uroporphyrinogen III synthase),2,-0.501,inactive
UROS (uroporphyrinogen III synthase),3,-0.163,inactive
UROS (uroporphyrinogen III synthase),4,0.247,inactive
IGFALS,1,-0.145,inactive
IGFALS,2,-0.0181,inactive
IGFALS,3,0.789,inactive
APLNR (apelin receptor),1,-0.0137,inactive
APLNR (apelin receptor),2,-0.42,inactive
APLNR (apelin receptor),3,-0.427,inactive
APLNR (apelin receptor),4,0.469,inactive
HOXD10 (homeobox D10),1,-0.0332,inactive
HOXD10 (homeobox D10),2,0.198,inactive
HOXD10 (homeobox D10),3,0.158,inactive
HOXD10 (homeobox D10),4,-0.569,inactive

A portion taken from the entries so far, as a working copy:
gene,reagent,log2 vehicle/camptothecin viability,call
IGFALS,1,-0.145,inactive
IGFALS,2,-0.0181,inactive
